# Experimental data published in doi:10.1101/2021.03.16.435663.
# These are yes or no findings as the source states them, for the method shown. Some entries that bind do so weakly or less than the wild type.
# T1: Tos4 (S. cerevisiae) (UniProt Q06266)
# T1 sequence: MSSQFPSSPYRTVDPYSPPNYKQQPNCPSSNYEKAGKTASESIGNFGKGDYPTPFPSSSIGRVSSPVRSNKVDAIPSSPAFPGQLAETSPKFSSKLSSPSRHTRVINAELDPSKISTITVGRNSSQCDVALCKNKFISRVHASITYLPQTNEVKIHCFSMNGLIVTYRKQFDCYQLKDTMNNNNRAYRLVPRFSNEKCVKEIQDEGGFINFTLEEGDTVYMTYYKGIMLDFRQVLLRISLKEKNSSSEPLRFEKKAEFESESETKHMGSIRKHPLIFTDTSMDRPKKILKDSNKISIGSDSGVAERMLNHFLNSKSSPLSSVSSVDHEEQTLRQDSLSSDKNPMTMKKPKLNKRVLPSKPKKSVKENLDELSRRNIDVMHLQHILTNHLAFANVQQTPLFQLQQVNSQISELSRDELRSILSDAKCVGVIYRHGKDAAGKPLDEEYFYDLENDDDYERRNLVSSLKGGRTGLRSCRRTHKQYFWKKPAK
# Biological target: T1, Tos4 (S. cerevisiae)
# Assay: two-hybrid
binder,measurement,value
"Oca1 (protein, UniProt P50946 1-238) MTSKVGEYEDVPEDESRLTEENVSVPEEEVEDEDEEEDDDDDHIYINEETESGREKVLVSHAPQERIVPPLNFCPVERYLYRSGQPSPVNFPFLLNLKLKTIIWLSNEEPQDTLLEFCDTHRINLQFAAINPDAGEDDNPWDGLTEHSIINVLQTIVTQENYPLLVCCGMGRHRTGTVIGCLRRIMGWNLASVSEEYRRFTGSRGGRILVELLIEAFDTNLVKIDKNKAPSWLLTALE",binding,binds
